Measured values as given in paper PMC11758950.
No constants are given. Whether binding was seen depends on the method and setting. In cells and extracts the contact can be indirect. Some results given as binding are weak or reduced against the parent protein; the word gives no strength. Where a sequence is shown, tags or fusion partners need not be part of it.

T1: ELFN1-Venus (mouse) (UniProt Q8C8T7)
T1 sequence: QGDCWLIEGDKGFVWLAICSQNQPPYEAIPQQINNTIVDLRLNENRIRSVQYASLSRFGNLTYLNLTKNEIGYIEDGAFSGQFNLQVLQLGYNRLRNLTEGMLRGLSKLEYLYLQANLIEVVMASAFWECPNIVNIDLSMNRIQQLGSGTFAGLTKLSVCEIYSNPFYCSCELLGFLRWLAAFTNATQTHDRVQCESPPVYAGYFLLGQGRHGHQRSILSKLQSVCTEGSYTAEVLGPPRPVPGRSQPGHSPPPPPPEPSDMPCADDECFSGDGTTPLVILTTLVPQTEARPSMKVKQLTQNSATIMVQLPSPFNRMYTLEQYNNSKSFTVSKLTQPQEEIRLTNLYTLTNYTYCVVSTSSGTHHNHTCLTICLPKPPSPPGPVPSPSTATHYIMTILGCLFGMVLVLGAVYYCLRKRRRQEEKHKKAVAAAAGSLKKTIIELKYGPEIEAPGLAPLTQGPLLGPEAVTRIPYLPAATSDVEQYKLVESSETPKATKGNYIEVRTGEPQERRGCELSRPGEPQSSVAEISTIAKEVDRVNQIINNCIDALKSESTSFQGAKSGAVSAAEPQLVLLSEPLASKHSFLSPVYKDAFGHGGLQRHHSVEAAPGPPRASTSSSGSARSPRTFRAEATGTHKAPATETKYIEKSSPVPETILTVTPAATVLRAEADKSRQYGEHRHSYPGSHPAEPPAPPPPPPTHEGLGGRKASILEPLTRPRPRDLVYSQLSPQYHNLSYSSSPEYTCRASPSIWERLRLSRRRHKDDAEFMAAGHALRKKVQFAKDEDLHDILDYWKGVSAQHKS

T2: EctoELFN1-Fc (mouse) (UniProt Q8C8T7)
T2 sequence: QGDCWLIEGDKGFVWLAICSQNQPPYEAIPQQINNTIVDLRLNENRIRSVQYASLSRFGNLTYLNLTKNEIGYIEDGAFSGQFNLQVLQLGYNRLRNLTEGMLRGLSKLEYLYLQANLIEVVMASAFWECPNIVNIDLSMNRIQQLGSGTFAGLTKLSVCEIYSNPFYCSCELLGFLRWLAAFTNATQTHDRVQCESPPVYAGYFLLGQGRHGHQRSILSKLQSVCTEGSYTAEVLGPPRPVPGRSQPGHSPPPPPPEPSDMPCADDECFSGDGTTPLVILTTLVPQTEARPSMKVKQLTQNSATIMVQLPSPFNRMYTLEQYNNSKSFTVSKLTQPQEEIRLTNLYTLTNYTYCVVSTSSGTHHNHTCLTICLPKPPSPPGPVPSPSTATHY

B1: ELFN1Δ452-myc (domain or fragment, UniProt Q8C8T7 26-452)
chain: QGDCWLIEGDKGFVWLAICSQNQPPYEAIPQQINNTIVDLRLNENRIRSVQYASLSRFGNLTYLNLTKNEIGYIEDGAFSGQFNLQVLQLGYNRLRNLTEGMLRGLSKLEYLYLQANLIEVVMASAFWECPNIVNIDLSMNRIQQLGSGTFAGLTKLSVCEIYSNPFYCSCELLGFLRWLAAFTNATQTHDRVQCESPPVYAGYFLLGQGRHGHQRSILSKLQSVCTEGSYTAEVLGPPRPVPGRSQPGHSPPPPPPEPSDMPCADDECFSGDGTTPLVILTTLVPQTEARPSMKVKQLTQNSATIMVQLPSPFNRMYTLEQYNNSKSFTVSKLTQPQEEIRLTNLYTLTNYTYCVVSTSSGTHHNHTCLTICLPKPPSPPGPVPSPSTATHYIMTILGCLFGMVLVLGAVYYCLRKRRRQEEKHKK
B2: ELFN1Δ439-myc (domain or fragment, UniProt Q8C8T7 26-439)
chain: QGDCWLIEGDKGFVWLAICSQNQPPYEAIPQQINNTIVDLRLNENRIRSVQYASLSRFGNLTYLNLTKNEIGYIEDGAFSGQFNLQVLQLGYNRLRNLTEGMLRGLSKLEYLYLQANLIEVVMASAFWECPNIVNIDLSMNRIQQLGSGTFAGLTKLSVCEIYSNPFYCSCELLGFLRWLAAFTNATQTHDRVQCESPPVYAGYFLLGQGRHGHQRSILSKLQSVCTEGSYTAEVLGPPRPVPGRSQPGHSPPPPPPEPSDMPCADDECFSGDGTTPLVILTTLVPQTEARPSMKVKQLTQNSATIMVQLPSPFNRMYTLEQYNNSKSFTVSKLTQPQEEIRLTNLYTLTNYTYCVVSTSSGTHHNHTCLTICLPKPPSPPGPVPSPSTATHYIMTILGCLFGMVLVLGAVYYC
B3: ELFN2-myc (protein, UniProt Q68FM6 23-823)
chain: DCWLIEGDKGYVWLAICSQNQPPYETIPQHINSTVHDLRLNENKLKAVLYSSLNRFGNLTDLNLTKNEISYIEDGAFLGQTSLQVLQLGYNRLSNLTEGMLRGMSRLQFLFVQHNLIEVVTPTAFSECPSLISIDLSSNRLSRLDGATFASLASLMVCELAGNPFNCECDLFGFLAWLVVFNNVTKNYDRLQCESPREFAGYPLLVPRPYHSLNAITVLQAKCRNGSMPARPVSHPTPYSTDAQREPDENSGFNPDEILSVEPPASSTTDASAGPAIKLHQVTFTSATLVVIIPHPYSKMYVLVQYNNSYFSDVMTLKNKKEIVTLDKLRAHTEYTFCVTSLRNSRRFNHTCLTFTTRDLVPGDLAPSTSTTTHYIMTILGCLFGMVIVLGAVYYCLRKRRMQEEKQKSVNVKKTILEMRYGADVDAGSIVHAAQKLGEPPVLPVARMSSIPSMVGEKLPASKGLEAGLDTPKVATKGNYIEVRTGAAGDSLARPEEELPEIENGQGSAAEISTIAKEVDKVNQIINNCIDALKLDSASFLGGGGGGGGGGDSDLAFECQSLPAAPAASSAATPGALERPSFLSPPYKESSHHPLQRQLSADAAVSRKTCSVSSSGSIKSAKVFSLDVPDHPTPTGLAKSDSKYIEKGSPLNSPLDRLPLVPTGSSGSSGGGGGIHHLEVKPAYHCSEHRHSFPALYYEEGADSLSQRVSFLKPLTRSKRDSTYSQLSPRHYYSGYSSSPEYSSESTHKIWERFRPYKKHHREEVYMAAGHALRKKVQFAKDEDLHDILDYWKGVSAQQKL
B4: ELFN1Δ734-myc (domain or fragment, UniProt Q8C8T7 26-734)
chain: QGDCWLIEGDKGFVWLAICSQNQPPYEAIPQQINNTIVDLRLNENRIRSVQYASLSRFGNLTYLNLTKNEIGYIEDGAFSGQFNLQVLQLGYNRLRNLTEGMLRGLSKLEYLYLQANLIEVVMASAFWECPNIVNIDLSMNRIQQLGSGTFAGLTKLSVCEIYSNPFYCSCELLGFLRWLAAFTNATQTHDRVQCESPPVYAGYFLLGQGRHGHQRSILSKLQSVCTEGSYTAEVLGPPRPVPGRSQPGHSPPPPPPEPSDMPCADDECFSGDGTTPLVILTTLVPQTEARPSMKVKQLTQNSATIMVQLPSPFNRMYTLEQYNNSKSFTVSKLTQPQEEIRLTNLYTLTNYTYCVVSTSSGTHHNHTCLTICLPKPPSPPGPVPSPSTATHYIMTILGCLFGMVLVLGAVYYCLRKRRRQEEKHKKAVAAAAGSLKKTIIELKYGPEIEAPGLAPLTQGPLLGPEAVTRIPYLPAATSDVEQYKLVESSETPKATKGNYIEVRTGEPQERRGCELSRPGEPQSSVAEISTIAKEVDRVNQIINNCIDALKSESTSFQGAKSGAVSAAEPQLVLLSEPLASKHSFLSPVYKDAFGHGGLQRHHSVEAAPGPPRASTSSSGSARSPRTFRAEATGTHKAPATETKYIEKSSPVPETILTVTPAATVLRAEADKSRQYGEHRHSYPGSHPAEPPAPPPPPPTHEGLGGRKA
B5: ELFN1Δ600-myc (domain or fragment, UniProt Q8C8T7 26-600)
chain: QGDCWLIEGDKGFVWLAICSQNQPPYEAIPQQINNTIVDLRLNENRIRSVQYASLSRFGNLTYLNLTKNEIGYIEDGAFSGQFNLQVLQLGYNRLRNLTEGMLRGLSKLEYLYLQANLIEVVMASAFWECPNIVNIDLSMNRIQQLGSGTFAGLTKLSVCEIYSNPFYCSCELLGFLRWLAAFTNATQTHDRVQCESPPVYAGYFLLGQGRHGHQRSILSKLQSVCTEGSYTAEVLGPPRPVPGRSQPGHSPPPPPPEPSDMPCADDECFSGDGTTPLVILTTLVPQTEARPSMKVKQLTQNSATIMVQLPSPFNRMYTLEQYNNSKSFTVSKLTQPQEEIRLTNLYTLTNYTYCVVSTSSGTHHNHTCLTICLPKPPSPPGPVPSPSTATHYIMTILGCLFGMVLVLGAVYYCLRKRRRQEEKHKKAVAAAAGSLKKTIIELKYGPEIEAPGLAPLTQGPLLGPEAVTRIPYLPAATSDVEQYKLVESSETPKATKGNYIEVRTGEPQERRGCELSRPGEPQSSVAEISTIAKEVDRVNQIINNCIDALKSESTSFQGAKSGAVSAAEPQLVLL
B6: ELFN1Δ536-myc (domain or fragment, UniProt Q8C8T7 26-536)
chain: QGDCWLIEGDKGFVWLAICSQNQPPYEAIPQQINNTIVDLRLNENRIRSVQYASLSRFGNLTYLNLTKNEIGYIEDGAFSGQFNLQVLQLGYNRLRNLTEGMLRGLSKLEYLYLQANLIEVVMASAFWECPNIVNIDLSMNRIQQLGSGTFAGLTKLSVCEIYSNPFYCSCELLGFLRWLAAFTNATQTHDRVQCESPPVYAGYFLLGQGRHGHQRSILSKLQSVCTEGSYTAEVLGPPRPVPGRSQPGHSPPPPPPEPSDMPCADDECFSGDGTTPLVILTTLVPQTEARPSMKVKQLTQNSATIMVQLPSPFNRMYTLEQYNNSKSFTVSKLTQPQEEIRLTNLYTLTNYTYCVVSTSSGTHHNHTCLTICLPKPPSPPGPVPSPSTATHYIMTILGCLFGMVLVLGAVYYCLRKRRRQEEKHKKAVAAAAGSLKKTIIELKYGPEIEAPGLAPLTQGPLLGPEAVTRIPYLPAATSDVEQYKLVESSETPKATKGNYIEVRTGEPQER
B7: ELFN1Δ501-myc (domain or fragment, UniProt Q8C8T7 26-501)
chain: QGDCWLIEGDKGFVWLAICSQNQPPYEAIPQQINNTIVDLRLNENRIRSVQYASLSRFGNLTYLNLTKNEIGYIEDGAFSGQFNLQVLQLGYNRLRNLTEGMLRGLSKLEYLYLQANLIEVVMASAFWECPNIVNIDLSMNRIQQLGSGTFAGLTKLSVCEIYSNPFYCSCELLGFLRWLAAFTNATQTHDRVQCESPPVYAGYFLLGQGRHGHQRSILSKLQSVCTEGSYTAEVLGPPRPVPGRSQPGHSPPPPPPEPSDMPCADDECFSGDGTTPLVILTTLVPQTEARPSMKVKQLTQNSATIMVQLPSPFNRMYTLEQYNNSKSFTVSKLTQPQEEIRLTNLYTLTNYTYCVVSTSSGTHHNHTCLTICLPKPPSPPGPVPSPSTATHYIMTILGCLFGMVLVLGAVYYCLRKRRRQEEKHKKAVAAAAGSLKKTIIELKYGPEIEAPGLAPLTQGPLLGPEAVTRIPYLPA
B8: ELFN1Δ471-myc (domain or fragment, UniProt Q8C8T7 26-471)
chain: QGDCWLIEGDKGFVWLAICSQNQPPYEAIPQQINNTIVDLRLNENRIRSVQYASLSRFGNLTYLNLTKNEIGYIEDGAFSGQFNLQVLQLGYNRLRNLTEGMLRGLSKLEYLYLQANLIEVVMASAFWECPNIVNIDLSMNRIQQLGSGTFAGLTKLSVCEIYSNPFYCSCELLGFLRWLAAFTNATQTHDRVQCESPPVYAGYFLLGQGRHGHQRSILSKLQSVCTEGSYTAEVLGPPRPVPGRSQPGHSPPPPPPEPSDMPCADDECFSGDGTTPLVILTTLVPQTEARPSMKVKQLTQNSATIMVQLPSPFNRMYTLEQYNNSKSFTVSKLTQPQEEIRLTNLYTLTNYTYCVVSTSSGTHHNHTCLTICLPKPPSPPGPVPSPSTATHYIMTILGCLFGMVLVLGAVYYCLRKRRRQEEKHKKAVAAAAGSLKKTIIELKYG

Experiments:
ELFN1-Venus (mouse) = biological target: T1, ELFN1-Venus (mouse); assay: co-IP; co-transfected HEK 293 T/17 cells (2.5 ug of each construct), 1% Triton-X lysis buffer; Protein G Sepharose beads with mouse GFP antibody, 1 h at 4 C, washed 3 times; blot with myc antibody
EctoELFN1-Fc (mouse) = biological target: T2, EctoELFN1-Fc (mouse); assay: pull-down; Fc or EctoELFN1-Fc secreted into OPTI-MEM (48 h) incubated with Protein G Sepharose beads and lysate of ELFN1-myc or ELFN2-myc transfected HEK 293 T/17 cells in 1% Triton-X lysis buffer, 1 h at 4 C, washed 3 times; blot with myc antibody

Binder | binding (ELFN1-Venus (mouse)) | binding (EctoELFN1-Fc (mouse))
B1 | binds | 
B2 | binds | 
B3 |  | binds
B4 | binds | 
B5 | binds | 
B6 | binds | 
B7 | binds | 
B8 | binds | 
